Measured data: PubChem BioAssay AID1259254 (NCATS, 2017)

- Screen: 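Finding genes that stop cells copying their DNA twice in one cycle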 (primary screen)
- System: human HCT116 colorectal cancer cells
- Knock-down reagent: single siRNA against human genes
- Timing: 3 days
- Detection: 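Imaged Hoechst DNA stain sorts each cell into a cycle phase by DNA amount; per plate, G2 fraction set to 0% for non-targeting and 100% for GMNN siRNA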
- Scale: G2 robust z-score and G2 cells, % of GMNN control: higher = more G2 cells, more excess DNA replication
- Active means: 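An siRNA counts as active if its G2 robust z-score lies at least 5 MADs above the screen median; here such calls match roughly 38% of GMNN control or more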
In all, the deposit lists about 59,000 reagents; below is a part drawn at random. Over the whole deposit, about 1,550 (2.6%) were called active. 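G2 share is only a proxy for re-replication; each gene was hit by three separate siRNAs, and active genes were retested.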 Reagents against one gene are numbered here. Further read-outs or replicates are left out here. Reagent sequences are not shown. Not given: the amount of reagent.

no.	gene	reagent no.	G2 robust z-score	G2 cells, % of GMNN control	Outcome
1	TCP11 (t-complex 11)	1	-1.29	-6.08	inactive
2	TCP11 (t-complex 11)	2	0.963	9.74	inactive
3	TCP11 (t-complex 11)	3	-0.174	1.74	inactive
4	SPATA45 (spermatogenesis associated 45)	1	1.04	10.3	inactive
5	SPATA45 (spermatogenesis associated 45)	2	1.41	12.9	inactive
6	SPATA45 (spermatogenesis associated 45)	3	0.394	5.74	inactive
7	RPS16 (ribosomal protein S16)	1	7.8	57.9	active
8	RPS16 (ribosomal protein S16)	2	7.81	57.9	active
9	RPS16 (ribosomal protein S16)	3	8.31	61.4	active
10	LINC01600 (long independently transcribed non-coding RNA 1600)	1	-0.55	-0.904	inactive
11	LINC01600 (long independently transcribed non-coding RNA 1600)	2	-0.503	-0.569	inactive
12	LINC01600 (long independently transcribed non-coding RNA 1600)	3	1.54	13.8	inactive
13	ASF1B (anti-silencing function 1B histone chaperone)	1	0.998	9.99	inactive
14	ASF1B (anti-silencing function 1B histone chaperone)	2	-0.0862	2.36	inactive
15	ASF1B (anti-silencing function 1B histone chaperone)	3	3.62	28.4	inactive
16	LEAP2 (liver enriched antimicrobial peptide 2)	1	-0.426	-0.0329	inactive
17	LEAP2 (liver enriched antimicrobial peptide 2)	2	1.09	10.7	inactive
18	LEAP2 (liver enriched antimicrobial peptide 2)	3	-0.0449	2.65	inactive
19	HADHA	1	-0.375	0.332	inactive
20	HADHA	2	-0.151	1.9	inactive
21	HADHA	3	0.591	7.12	inactive
22	CGAS (cyclic GMP-AMP synthase)	1	-0.938	-3.63	inactive
23	CGAS (cyclic GMP-AMP synthase)	2	7.14	53.2	active
24	CGAS (cyclic GMP-AMP synthase)	3	-0.799	-2.66	inactive
25	SPOPL (speckle type BTB/POZ protein like)	1	1.33	12.3	inactive
26	SPOPL (speckle type BTB/POZ protein like)	2	-0.208	1.5	inactive
27	SPOPL (speckle type BTB/POZ protein like)	3	1.49	13.4	inactive
28	KCTD14 (potassium channel tetramerization domain containing 14)	1	-0.798	-2.65	inactive
29	KCTD14 (potassium channel tetramerization domain containing 14)	2	-0.969	-3.85	inactive
30	KCTD14 (potassium channel tetramerization domain containing 14)	3	-0.308	0.799	inactive
31	AKAP1 (A-kinase anchoring protein 1)	1	-0.875	-3.19	inactive
32	AKAP1 (A-kinase anchoring protein 1)	2	0.671	7.69	inactive
33	AKAP1 (A-kinase anchoring protein 1)	3	-0.153	1.89	inactive
34	CCDC78 (coiled-coil domain containing 78)	1	-0.155	1.88	inactive
35	CCDC78 (coiled-coil domain containing 78)	2	-0.337	0.594	inactive
36	CCDC78 (coiled-coil domain containing 78)	3	4.97	37.9	inactive
37	SNED1 (sushi, nidogen and EGF like domains 1)	1	-0.762	-2.39	inactive
38	SNED1 (sushi, nidogen and EGF like domains 1)	2	-0.759	-2.38	inactive
39	SNED1 (sushi, nidogen and EGF like domains 1)	3	1.2	11.4	inactive
40	CD164L2 (CD164 molecule like 2)	1	-0.119	2.13	inactive
41	CD164L2 (CD164 molecule like 2)	2	3.22	25.6	inactive
42	CD164L2 (CD164 molecule like 2)	3	0.225	4.55	inactive
43	CNBP (CCHC-type zinc finger nucleic acid binding protein)	1	-1.42	-6.99	inactive
44	CNBP (CCHC-type zinc finger nucleic acid binding protein)	2	3.07	24.5	inactive
45	CNBP (CCHC-type zinc finger nucleic acid binding protein)	3	0.908	9.36	inactive
46	NBPF1 (NBPF member 1)	1	2.58	21.1	inactive
47	NBPF1 (NBPF member 1)	2	-0.906	-3.41	inactive
48	NBPF1 (NBPF member 1)	3	-0.228	1.37	inactive
49	ZNF417 (zinc finger protein 417)	1	0.16	4.09	inactive
50	ZNF417 (zinc finger protein 417)	2	0.0337	3.2	inactive
51	ZNF417 (zinc finger protein 417)	3	0.202	4.39	inactive
52	NRXN3 (neurexin 3)	1	0.983	9.88	inactive
53	NRXN3 (neurexin 3)	2	0.237	4.63	inactive
54	NRXN3 (neurexin 3)	3	-0.993	-4.02	inactive
55	SDF4 (stromal cell derived factor 4)	1	-0.21	1.49	inactive
56	SDF4 (stromal cell derived factor 4)	2	0.69	7.82	inactive
57	SDF4 (stromal cell derived factor 4)	3	-0.863	-3.1	inactive
58	UPB1 (beta-ureidopropionase 1)	1	0.233	4.61	inactive
59	UPB1 (beta-ureidopropionase 1)	2	3.23	25.7	inactive
60	UPB1 (beta-ureidopropionase 1)	3	-0.418	0.0277	inactive
61	MARK4 (microtubule affinity regulating kinase 4)	1	-0.632	-1.48	inactive
62	MARK4 (microtubule affinity regulating kinase 4)	2	-1.4	-6.87	inactive
63	MARK4 (microtubule affinity regulating kinase 4)	3	-0.641	-1.54	inactive
64	USP38 (ubiquitin specific peptidase 38)	1	1.23	11.6	inactive
65	USP38 (ubiquitin specific peptidase 38)	2	0.553	6.86	inactive
66	USP38 (ubiquitin specific peptidase 38)	3	0.0517	3.33	inactive
67	ZNF280B (zinc finger protein 280B)	1	0.117	3.79	inactive
68	ZNF280B (zinc finger protein 280B)	2	-0.495	-0.517	inactive
69	ZNF280B (zinc finger protein 280B)	3	-0.877	-3.2	inactive

Targets listed so far whose target name begins with H or h (3):
gene	reagent no.	G2 robust z-score	G2 cells, % of GMNN control	Outcome
HADHA	1	-0.375	0.332	inactive
HADHA	2	-0.151	1.9	inactive
HADHA	3	0.591	7.12	inactive
